Results are given in words; binding and its absence hold for the method and conditions named. Binding seen in cells or lysates may run through a third protein. Some binding calls cover weakened binding; strength is not graded here.
Key:
[1] = biological target: ATG16L1 (UniProt Q676U5); experiment: co-immunoprecipitation
[2] = biological target: GST-LC3A (UniProt Q9H492); experiment: GST pull-down of radiolabeled Myc-TRIM20 deletion variants
[3] = biological target: GST-GABARAP (UniProt O95166); experiment: as above
[4] = biological target: T1, ULK1 (UniProt O75385); experiment: co-IP of GFP-TRIM21 with Myc-ULK1, HEK293 cell extracts
T1 sequence (looked up): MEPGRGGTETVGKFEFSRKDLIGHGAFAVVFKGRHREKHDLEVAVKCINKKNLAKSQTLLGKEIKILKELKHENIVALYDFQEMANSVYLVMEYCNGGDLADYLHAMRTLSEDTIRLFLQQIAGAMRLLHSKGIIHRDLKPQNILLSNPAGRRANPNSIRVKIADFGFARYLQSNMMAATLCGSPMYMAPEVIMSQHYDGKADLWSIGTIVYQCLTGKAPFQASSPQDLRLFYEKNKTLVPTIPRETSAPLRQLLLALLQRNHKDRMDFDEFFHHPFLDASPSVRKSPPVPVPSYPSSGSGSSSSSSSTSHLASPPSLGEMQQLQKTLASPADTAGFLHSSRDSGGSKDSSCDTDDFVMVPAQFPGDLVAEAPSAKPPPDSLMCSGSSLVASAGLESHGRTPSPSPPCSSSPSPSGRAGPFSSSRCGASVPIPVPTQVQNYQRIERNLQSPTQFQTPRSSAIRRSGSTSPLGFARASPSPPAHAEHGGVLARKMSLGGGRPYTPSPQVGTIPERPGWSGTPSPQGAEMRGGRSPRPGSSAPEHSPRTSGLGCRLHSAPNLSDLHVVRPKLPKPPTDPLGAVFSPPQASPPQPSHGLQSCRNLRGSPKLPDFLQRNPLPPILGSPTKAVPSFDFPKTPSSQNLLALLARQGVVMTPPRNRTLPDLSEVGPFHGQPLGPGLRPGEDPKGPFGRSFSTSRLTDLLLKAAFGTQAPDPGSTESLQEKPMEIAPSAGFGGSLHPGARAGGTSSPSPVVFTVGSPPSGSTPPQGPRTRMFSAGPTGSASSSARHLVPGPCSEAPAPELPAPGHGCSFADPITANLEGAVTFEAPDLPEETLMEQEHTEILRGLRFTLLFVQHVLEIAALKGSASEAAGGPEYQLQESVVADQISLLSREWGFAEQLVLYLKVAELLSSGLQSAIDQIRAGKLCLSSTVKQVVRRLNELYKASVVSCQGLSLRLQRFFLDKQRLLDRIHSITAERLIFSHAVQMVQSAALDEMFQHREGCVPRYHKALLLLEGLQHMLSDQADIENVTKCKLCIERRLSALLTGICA

By UniProt entry, the sequences of proteins in these tests, tags left out. Where a name states a change or a piece, a line headed by the entry shows the natural chain unless it says otherwise.
UniProt Q676U5: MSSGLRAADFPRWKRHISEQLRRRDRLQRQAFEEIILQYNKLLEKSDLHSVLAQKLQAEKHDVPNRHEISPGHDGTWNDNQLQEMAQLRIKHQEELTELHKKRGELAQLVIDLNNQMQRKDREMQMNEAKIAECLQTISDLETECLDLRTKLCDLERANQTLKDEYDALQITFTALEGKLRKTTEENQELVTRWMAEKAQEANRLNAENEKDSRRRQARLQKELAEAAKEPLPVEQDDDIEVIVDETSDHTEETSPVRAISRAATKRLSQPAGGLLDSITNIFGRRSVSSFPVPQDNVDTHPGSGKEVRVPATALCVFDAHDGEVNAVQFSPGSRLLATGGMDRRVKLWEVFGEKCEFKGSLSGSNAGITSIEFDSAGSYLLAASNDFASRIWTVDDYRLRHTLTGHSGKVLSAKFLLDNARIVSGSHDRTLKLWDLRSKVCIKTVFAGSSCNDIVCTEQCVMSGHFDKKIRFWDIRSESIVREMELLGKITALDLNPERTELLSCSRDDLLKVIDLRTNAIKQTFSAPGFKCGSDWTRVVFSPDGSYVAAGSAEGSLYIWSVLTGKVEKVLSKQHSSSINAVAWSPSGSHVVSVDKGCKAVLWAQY
UniProt O95166: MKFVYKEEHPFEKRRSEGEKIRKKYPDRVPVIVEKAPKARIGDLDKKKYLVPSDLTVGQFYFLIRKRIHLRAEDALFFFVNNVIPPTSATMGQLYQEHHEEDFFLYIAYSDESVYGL
UniProt P60520: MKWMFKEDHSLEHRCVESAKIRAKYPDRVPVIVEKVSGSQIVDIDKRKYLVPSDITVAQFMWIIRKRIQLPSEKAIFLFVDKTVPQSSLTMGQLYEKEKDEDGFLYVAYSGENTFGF
UniProt Q9BXW4: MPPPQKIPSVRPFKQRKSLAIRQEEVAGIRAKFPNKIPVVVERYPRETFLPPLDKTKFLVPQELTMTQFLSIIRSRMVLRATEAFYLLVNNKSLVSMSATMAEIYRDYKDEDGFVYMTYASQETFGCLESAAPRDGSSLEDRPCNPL
UniProt Q9HC29: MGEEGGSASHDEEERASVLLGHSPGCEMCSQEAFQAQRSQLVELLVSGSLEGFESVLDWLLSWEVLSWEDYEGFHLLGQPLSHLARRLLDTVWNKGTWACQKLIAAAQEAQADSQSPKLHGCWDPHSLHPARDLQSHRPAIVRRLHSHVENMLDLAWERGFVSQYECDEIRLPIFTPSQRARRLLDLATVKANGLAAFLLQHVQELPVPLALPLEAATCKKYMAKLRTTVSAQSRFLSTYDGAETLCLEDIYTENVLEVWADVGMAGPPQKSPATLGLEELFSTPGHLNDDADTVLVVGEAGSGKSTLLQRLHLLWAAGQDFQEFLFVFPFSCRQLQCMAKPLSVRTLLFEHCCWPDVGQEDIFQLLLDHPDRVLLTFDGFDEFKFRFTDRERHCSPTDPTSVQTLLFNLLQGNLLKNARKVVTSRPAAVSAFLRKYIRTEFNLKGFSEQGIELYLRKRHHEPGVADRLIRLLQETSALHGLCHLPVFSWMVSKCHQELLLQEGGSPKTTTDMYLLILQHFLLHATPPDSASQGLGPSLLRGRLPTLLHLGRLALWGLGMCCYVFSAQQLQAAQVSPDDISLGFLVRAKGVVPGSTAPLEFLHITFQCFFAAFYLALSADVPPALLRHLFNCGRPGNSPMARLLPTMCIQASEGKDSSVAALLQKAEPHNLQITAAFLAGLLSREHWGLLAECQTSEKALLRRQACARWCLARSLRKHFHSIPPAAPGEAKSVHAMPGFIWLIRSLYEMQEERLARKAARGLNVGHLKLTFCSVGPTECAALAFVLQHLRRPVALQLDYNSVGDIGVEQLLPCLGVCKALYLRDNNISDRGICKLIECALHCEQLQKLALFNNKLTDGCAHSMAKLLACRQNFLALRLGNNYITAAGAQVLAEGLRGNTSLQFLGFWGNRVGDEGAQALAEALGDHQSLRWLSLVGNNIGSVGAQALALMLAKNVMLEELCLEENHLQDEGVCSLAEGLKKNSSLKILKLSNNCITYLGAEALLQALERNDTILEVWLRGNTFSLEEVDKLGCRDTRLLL
UniProt O15553: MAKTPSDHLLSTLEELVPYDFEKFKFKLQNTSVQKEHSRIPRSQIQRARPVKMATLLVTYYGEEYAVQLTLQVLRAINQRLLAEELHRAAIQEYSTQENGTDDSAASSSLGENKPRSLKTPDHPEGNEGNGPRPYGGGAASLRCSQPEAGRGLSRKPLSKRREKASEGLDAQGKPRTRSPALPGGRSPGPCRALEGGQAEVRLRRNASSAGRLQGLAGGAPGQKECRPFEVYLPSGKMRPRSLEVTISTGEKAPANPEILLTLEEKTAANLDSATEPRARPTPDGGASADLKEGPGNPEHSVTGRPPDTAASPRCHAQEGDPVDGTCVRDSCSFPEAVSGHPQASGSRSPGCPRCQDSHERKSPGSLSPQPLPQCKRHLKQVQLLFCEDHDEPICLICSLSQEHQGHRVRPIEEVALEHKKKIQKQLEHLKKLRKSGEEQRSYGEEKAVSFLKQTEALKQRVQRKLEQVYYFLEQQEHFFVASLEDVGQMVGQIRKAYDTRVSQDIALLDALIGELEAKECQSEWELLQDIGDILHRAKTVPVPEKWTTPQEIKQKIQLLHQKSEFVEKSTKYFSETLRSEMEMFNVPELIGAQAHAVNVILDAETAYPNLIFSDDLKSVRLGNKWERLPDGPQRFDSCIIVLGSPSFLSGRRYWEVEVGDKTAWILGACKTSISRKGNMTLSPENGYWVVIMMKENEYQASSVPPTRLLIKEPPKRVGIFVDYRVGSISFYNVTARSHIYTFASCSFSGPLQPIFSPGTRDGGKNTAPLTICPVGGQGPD
UniProt P19474: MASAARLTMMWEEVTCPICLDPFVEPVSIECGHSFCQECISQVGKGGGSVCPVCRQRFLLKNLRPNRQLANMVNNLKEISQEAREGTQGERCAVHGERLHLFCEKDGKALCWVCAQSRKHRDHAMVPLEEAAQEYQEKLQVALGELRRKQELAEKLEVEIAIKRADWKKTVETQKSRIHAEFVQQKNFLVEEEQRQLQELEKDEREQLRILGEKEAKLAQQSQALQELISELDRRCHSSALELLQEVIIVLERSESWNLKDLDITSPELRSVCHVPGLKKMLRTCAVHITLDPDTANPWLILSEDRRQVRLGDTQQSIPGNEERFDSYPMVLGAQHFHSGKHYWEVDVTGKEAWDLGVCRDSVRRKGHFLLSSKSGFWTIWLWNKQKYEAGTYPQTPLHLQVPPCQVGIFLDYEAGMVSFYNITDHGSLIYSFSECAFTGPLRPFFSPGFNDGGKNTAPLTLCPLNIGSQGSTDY

[5] = biological target: GST-LC3A (UniProt Q9H492); experiment: GST pull-down of radiolabeled Myc-TRIM20
[6] = biological target: GST-GABARAPL2 (UniProt P60520); experiment: GST pull-down of radiolabeled Myc-TRIM20
[7] = biological target: GST-LC3C (UniProt Q9BXW4); experiment: GST pull-down of radiolabeled Myc-TRIM20
[8] = biological target: GST-GABARAP (UniProt O95166); experiment: GST pull-down of radiolabeled Myc-TRIM21 with GST-mAtg8s

Q: For “NOD2 (full length) (from UniProt Q9HC29 1-1040) (receptor)”, which binding [1] is on record?
A: The binding was “binds”.

Q: For “TRIM20 deletion construct spanning residues 375-595 (from UniProt O15553 375-595)”, which binding [2] is on record?
A: The binding was “binds”.

Q: What about the binding [3] of the same substance?
A: Its binding is “binds”.

Q: “TRIM21 expressed in cells (from UniProt P19474 1-475)” was tested. Which binding [4] did it give?
A: The binding was “binds”.

Q: What does the source list for “radiolabeled Myc-TRIM20 (from UniProt O15553 1-781)”?
A: binding [5]: binds; binding [6]: binds; binding [7]: binds

Q: With “radiolabeled Myc-TRIM21 (from UniProt P19474 1-475)” as the substance, how does the binding [8] read?
A: Its binding is “binds”.

— patent US20180236024A1
